Data published in patent publication US8546322B2, “Inhibitors of intracellular urokinase plasminogen activator and methods of use thereof” (The Regents of the University of California, priority 2007, dated 2013).
Read-outs that look alike come from different tables or passages of the source. *1 amine or outer side, *2 acyl side, *3 side chain or, on linkers, in order; H or OH if unused. Where a SMILES comes first, the peptide text is derived from it. [ ]: non-standard residue; d: D form. X1 = N=C(N)NC(=O)c1nc(Cl)c(N(CC(=O)[*:2])[*:1])nc1N

Columns and labels:
[1] = test system: enkephalinase (neutral endopeptidase 24.11); settings: Palandoken et al. 2005, cited from earlier work
[2] = test system: enkephalinase (neutral endopeptidase 24.11); experiment: LCMS enkephalinase degradation assay; format: biochemical; settings: LCMS after incubation with enzyme

Compound | cleavage by enkephalinase (in words) [1] | cleavage by enkephalinase (in words) [2] | cleavage by enkephalinase (in words) ([1]; listed as Amiloride C(5)-Gly-Gly-Gly-Phe-Leu)
AmC(5)-G-G-F-L | not cleaved by enkephalinase |  | 
N=C(N)NC(=O)c1nc(Cl)c(NCC(=O)O)nc1N [AmC(5)Gly, amilorideC(5)-glycine-OH] |  | unaffected | 
CC(C)C[C@@H](NC(=O)[C@H](Cc1ccccc1)NC(=O)CNC(=O)[C@@H](C)NC(=O)CNc1nc(N)c(C(=O)NC(=N)N)nc1Cl)C(=O)O [Compound 3b, C5am-Gly-D-Ala-Gly-Phe-D-Leu-OH] (H-[X1][dA]GF[dL]-OH) |  | not cleaved | 
AmC(5)-G-G-G-F-L (GGGFL; amiloride C(5) conjugate; printed: Gly-Gly-Gly-Phe-Leu) | is cleaved by enkephalinase |  | generates AmC(5)-Gly
CC(C)C[C@H](NC(=O)[C@H](Cc1ccccc1)NC(=O)CNC(=O)CNC(=O)CNC(=O)CNc1nc(N)c(C(=O)NC(=N)N)nc1Cl)C(=O)O [Compound 3c, C5am-Gly-Gly-Gly-Gly-Phe-Leu-OH] (H-[X1]GGGFL-OH) |  | selectively cleaved | 
